Source: patent US12116370B2, “Condensed heterocyclic compound having a bridgehead nitrogen atom or salt thereof, agricultural or horticultural insecticide comprising the compound, and method for using the insecticide” (Nihon Nohyaku Co., Ltd., priority 2019, dated 2024)
Some entries share one result that the patent states for a list of compounds.

What was measured:
Format in all cases: in vivo
[1] = test system: adults of Ctenocephalides felis; assay: Assay for oral parasiticidal activity against adults of Ctenocephalides felis; conditions: 50 ppm in bovine blood, oral via feeder, following day
Method: Newly-emerged adults of C. felis were placed into test cages (10 adults per test cage). DMSO diluted solutions of various compounds of the present invention were added to aliquots of bovine blood at the final concentration of 50 ppm and orally administered to the adults of C. felis using a feeder. The mortality rate was examined on the following day. Aberrant adults were regarded as the dead.

Laodelphax striatellus = assay: Insecticidal test on Laodelphax striatellus; conditions: 500 ppm, rice seedlings dipped 30 seconds, 3rd-instar larvae, 8 days after inoculation
Excerpt: The condensed heterocyclic compounds having a bridgehead nitrogen atom represented by the general formula (1) of the present invention or salts thereof were separately dispersed in water and diluted to 500 ppm. Rice plant seedlings (variety: Nihonbare) were dipped in the agrochemical dispersions for 30 seconds. After air-dried, each seedling was put into a separate glass test tube and inoculated with ten 3rd-instar larvae of L. striatellus, and then the glass test tubes were capped with cotton plugs. At 8 days after the inoculation, the numbers of surviving larvae and dead larvae of L. striatellus were counted, the corrected mortality rate was calculated according to the formula shown below, and the insecticidal efficacy was evaluated according to the criteria of Test Example 1.

Plutella xylostella = assay: Insecticidal test on Plutella xylostella; conditions: 500 ppm, Chinese cabbage seedlings with laid eggs dipped about 30 seconds, 6 days after dip treatment, 25° C.
Excerpt: Adults of P. xylostella were released onto Chinese cabbage seedlings and allowed to lay eggs thereon. At 2 days after the release of the adults, the Chinese cabbage seedlings with laid eggs were dipped for about 30 seconds in agrochemical formulations diluted to 500 ppm, each of which contained a different kind of condensed heterocyclic compound having a bridgehead nitrogen atom represented by the general formula (1) of the present invention as an active ingredient. After air-dried, the seedlings were kept in a thermostatic chamber at 25° C. At 6 days after the dip treatment, the number of hatched larvae per plot was counted, the mortality rate of P. xylostella was calculated according to the formula shown below, and the insecticidal efficacy was evaluated according to the criteria of Test Example 1. This test was conducted in triplicate using 10 adults of P. xylostella per plot.

Myzus persicae = assay: Test for control efficacy on Myzus persicae; conditions: 500 ppm, foliar application to potted Chinese cabbage, 6 days after application

| SMILES | mortality rate [1] [%] | insecticidal efficacy (corrected mortality rate) activity level (Laodelphax striatellus) | insecticidal efficacy (mortality rate) activity level (Plutella xylostella) | control efficacy (control rate) activity level (Myzus persicae) |
| --- | --- | --- | --- | --- |
| CCS(=O)(=O)c1cc(C=NOCC(F)(F)C(F)(F)F)cnc1-c1nc2ccc(C(F)(F)F)cn2n1 [Compound 1-26] | ≥ 50 | A (the control rate is 100%.) | A (the control rate is 100%.) | A (the control rate is 100%.) |
| CCS(=O)(=O)c1cc(C=NOCC(F)(F)C(F)(F)F)cnc1-c1nc2cc(C(F)(F)F)ccn2n1 [Compound 1-8] | ≥ 50 | A (the control rate is 100%.) | A (the control rate is 100%.) | A (the control rate is 100%.) |
| CCS(=O)(=O)c1ccc(C=NOCC(F)F)nc1-c1nc2cc(C(F)(F)F)nc(C)n2n1 [Compound 2-52] | – | A (the control rate is 100%.) | A (the control rate is 100%.) | A (the control rate is 100%.) |
| CCS(=O)(=O)c1ccc(C=NOCC(F)F)nc1-c1nc2cc(C(F)(F)F)ccn2n1 [Compound 2-7] | – | A (the control rate is 100%.) | A (the control rate is 100%.) | A (the control rate is 100%.) |
| CCS(=O)(=O)c1ccc(C=NOCC(F)(F)C(F)(F)F)nc1-c1nc2cc(C(F)(F)F)ccn2n1 [Compound 2-8] | – | A (the control rate is 100%.) | A (the control rate is 100%.) | A (the control rate is 100%.) |
| CCS(=O)(=O)c1ccc(C=NOCC(F)F)nc1-c1nc2cc(C(F)(F)C(F)(F)F)ncn2n1 [Compound 2-43] | – | A (the control rate is 100%.) | A (the control rate is 100%.) | A (the control rate is 100%.) |
| CCON=Cc1ccc(S(=O)(=O)CC)c(-c2nc3cc(C(F)(F)F)nc(C)n3n2)n1 [Compound 2-48] | – | A (the control rate is 100%.) | A (the control rate is 100%.) | A (the control rate is 100%.) |
| CCS(=O)(=O)c1cc(C=NOCC(F)(F)C(F)F)cnc1-c1nc2ccc(C(F)(F)F)cn2n1 [Compound 1-27] | – | A (the control rate is 100%.) | A (the control rate is 100%.) | A (the control rate is 100%.) |
| CCS(=O)(=O)c1cc(C=NOCC(F)F)cnc1-c1nc2ccc(C(F)(F)F)cn2n1 [Compound 1-25] | – | A (the control rate is 100%.) | A (the control rate is 100%.) | A (the control rate is 100%.) |
| CCON=Cc1cnc(-c2nc3cc(C(F)(F)F)ccn3n2)c(S(=O)(=O)CC)c1 [Compound 1-3] | – | A (the control rate is 100%.) | A (the control rate is 100%.) | A (the control rate is 100%.) |
| CCS(=O)(=O)c1ccc(C=NOC)nc1-c1nc2ccc(C(F)(F)F)cn2n1 [Compound 2-20] | – | A (the control rate is 100%.) | A (the control rate is 100%.) | A (the control rate is 100%.) |
| CCS(=O)(=O)CCON=Cc1cnc(-c2nc3cc(C(F)(F)F)ccn3n2)c(S(=O)(=O)CC)c1 [Compound 1-52] | – | A (the control rate is 100%.) | A (the control rate is 100%.) | A (the control rate is 100%.) |
| CCS(=O)(=O)c1cc(C=NOCC(F)(F)C(F)F)cnc1-c1nc2cc(C(F)(F)F)ccn2n1 [Compound 1-9] | – | A (the control rate is 100%.) | A (the control rate is 100%.) | A (the control rate is 100%.) |
| CCS(=O)(=O)c1cc(C=NOC(C)C)cnc1-c1nc2cc(C(F)(F)F)ccn2n1 [Compound 1-5] | – | A (the control rate is 100%.) | A (the control rate is 100%.) | A (the control rate is 100%.) |
| CCS(=O)(=O)c1cc(C=NOCC(F)F)cnc1-c1nc2cc(C(F)(F)F)cc(C)n2n1 [Compound 1-16] | – | A (the control rate is 100%.) | A (the control rate is 100%.) | A (the control rate is 100%.) |
| CCS(=O)(=O)c1ccc(C=NOCC(F)F)nc1-c1nc2ccc(C(F)(F)F)cn2n1 [Compound 2-25] | – | A (the control rate is 100%.) | A (the control rate is 100%.) | A (the control rate is 100%.) |
| CCS(=O)(=O)c1ccc(C=NOCC(F)(F)F)nc1-c1nc2ccc(C(F)(F)F)cn2n1 [Compound 2-24] | – | A (the control rate is 100%.) | A (the control rate is 100%.) | A (the control rate is 100%.) |
| CCS(=O)(=O)c1cc(C=NOCSC)cnc1-c1nc2ccc(C(F)(F)F)cn2n1 [Compound 1-46] | – | A (the control rate is 100%.) | A (the control rate is 100%.) | A (the control rate is 100%.) |
| CCS(=O)(=O)c1cc(C(=NOCCSC)c2cccc(OC(F)(F)F)c2)cnc1-c1nc2cc(C(F)(F)F)ccn2n1 [Compound 3-52] | – | A (the control rate is 100%.) | A (the control rate is 100%.) | A (the control rate is 100%.) |
| CCS(=O)(=O)c1cc(C=NOCC(F)(F)F)cnc1-c1nc2cc(C(F)(F)F)cc(C)n2n1 [Compound 1-15] | ≥ 50 | A (the control rate is 100%.) | A (the control rate is 100%.) | A (the control rate is 100%.) |
| CCS(=O)(=O)c1ccc(C=NOCC(F)F)nc1-c1nc2cc(C(F)(F)F)cc(C)n2n1 [Compound 2-16] | – | A (the control rate is 100%.) | A (the control rate is 100%.) | A (the control rate is 100%.) |
| CCS(=O)(=O)c1ccc(C=NOCC(F)(F)C(F)(F)F)nc1-c1nc2cc(C(F)(F)F)cc(C)n2n1 [Compound 2-17] | – | A (the control rate is 100%.) | A (the control rate is 100%.) | A (the control rate is 100%.) |
| CCS(=O)(=O)c1ccc(C=NOCC(F)(F)F)nc1-c1nc2cc(C(F)(F)F)ccn2n1 [Compound 2-6] | – | A (the control rate is 100%.) | A (the control rate is 100%.) | A (the control rate is 100%.) |
| CCS(=O)(=O)c1ccc(C=NOCC(F)(F)F)nc1-c1nc2cc(C(F)(F)F)nc(C)n2n1 [Compound 2-51] | – | A (the control rate is 100%.) | A (the control rate is 100%.) | A (the control rate is 100%.) |
| CCS(=O)(=O)c1cc(C=NOCC(F)(F)F)cnc1-c1nc2cc(C(F)(F)F)ccn2n1 [Compound 1-6] | – | A (the control rate is 100%.) | A (the control rate is 100%.) | A (the control rate is 100%.) |
| CCS(=O)(=O)c1cc(C=NOCC(F)(F)F)cnc1-c1nc2ccc(C(F)(F)F)cn2n1 [Compound 1-24] | – | A (the control rate is 100%.) | A (the control rate is 100%.) | A (the control rate is 100%.) |
| CCS(=O)(=O)c1ccc(C=NOCC(F)(F)F)nc1-c1nc2cc(C(F)(F)F)cc(C)n2n1 [Compound 2-15] | – | A (the control rate is 100%.) | A (the control rate is 100%.) | A (the control rate is 100%.) |
